Values quoted from earlier work in patent US10179139B2, “Pharmaceutical composition” (CIPLA Limited, priority 2010, dated 2019).
Where a name gives a salt, the structure may show the parent alone.

Conditions: in vivo

For `COc1ccc(CC(C)NCC(O)c2ccc(O)c(NC=O)c2)cc1` (racemic) [Formoterol, (±)-2-hydroxy-5-[(1RS)-1-hydroxy-2-[[(1RS)-2-(4-methoxyphenyl)-1methylethyl]-amino]ethyl]formanilide fumarate dihydrate], the onset of action is listed as 1 to 3 min.
